No constants are given. Whether binding was seen depends on the method and setting. In cells and extracts the contact can be indirect. Here binding means that the protein was enriched with, or labelled near, the bait; the list need not be complete. No binding means not detected with the bait.
Target: PfGrx1^C32S (P. falciparum)
Assay: affinity purification with mass spectrometry; 1 mg pure active site mutant coupled to CNBr-activated Sepharose 4B; incubated with P. falciparum trophozoite cell lysate (7-10 mg protein) at room temperature for at least 2 h; washed with 100 mM Tris, 500 mM NaCl, pH 8.0; eluted with 10 mM DTT (mixed disulfide trapping); SDS-PAGE bands identified by MALDI-TOF peptide mass fingerprinting; only the target purified

B1: 40S ribosomal protein S12 (protein, UniProt O97249 1-141)
chain: MSDVESADNNVVVEEKAVFDNVTAIQKVIKNAHVHDGLKIGIREVIKSIESQEAKVCFLSDVCSEPAYKKLITTLCAEKNIPLFMVQNDSKDLGHWAGLFKLDNEGNARKIIGASSVAVVDFGEDSAEKDFLLSQNQTVTA
Question: How did the binding turn out when B1 was run?
Answer: The binding was “binds”.

B2: 1-Cys peroxiredoxin (1-Cys-Prx) (protein, UniProt Q8IAM2 1-220)
chain: MAYHLGATFPNFTATASNVDGVFDFYKYVGDNWAILFSHPHDFTPVCTTELAEFGKMHEEFLKLNCKLIGFSCNSKESHDQWIEDIKFYGNLDKWDIPMVCDESRELANQLKIMDEKEKDIKGLPLTCRCVFFISPDKKVKATVLYPATTGRNSQEILRVLKSLQLTNTHPVATPVNWKEGDKCCILPSVDNADLPKLFKNEVKKLDVPSQKAYLRFVQM
Question: How did the binding turn out when B2 was run?
Answer: The binding was “no binding”.

B3: 2-Cys peroxiredoxin (2-Cys-Prx) (protein, UniProt Q8IL80 1-195)
chain: MASYVGREAPYFKAEAVFADNTFGEVNLHDFIGKKYVLLYFYPLDFTFVCPSEIIALDKALDAFKERNVELIGCSVDSKYTHLAWKKTPLTKGGIGNIQHTLISDITKSISRSYNVLFGDSVSLRAFVLIDKQGVVQHLLVNNLAIGRSVEEVLRIIDAVQHHEQHGDVCPANWKKGKVAMKPSEEGVSEYLSKL
Question: With B3 as the binder, how does the binding read?
Answer: Its binding is “no binding”.

B4: Phosphoethanolamine N-methyltransferase, putative (enzyme, UniProt Q8IDQ9 1-266)
chain: MTLIENLNSDKTFLENNQYTDEGVKVYEFIFGENYISSGGLEATKKILSDIELNENSKVLDIGSGLGGGCMYINEKYGAHTHGIDICSNIVNMANERVSGNNKIIFEANDILTKEFPENNFDLIYSRDAILHLSLENKNKLFQKCYKWLKPTGTLLITDYCATEKENWDDEFKEYVKQRKYTLITVEEYADILTACNFKNVVSKDLSDYWNQLLEVEHKYLHENKEEFLKLFSEKKFISLDDGWSRKIKDSKRKMQRWGYFKATKN
Question: For B4, which binding is on record?
Answer: The binding was “binds”.

B5: Guanine nucleotide-binding protein, putative/receptor for activated C kinase homolog (protein, UniProt Q8IBA0 1-323)
chain: MMDNIKEAEISLRGVLEGGHSDWVTSVSTPTDPKLKTIVSASRDKKLIVWNINTDDDSGEIGTAKKSLTGHSQAINDVSISSDGLFALSGSWDHSVRLWDLSLGETIRSFIGHTSDVFSVSFSPDNRQIVSASRDKTIKLWNTLAQCKYTITDQQHTDWITCVRFSPSPNQAIIVSCGWDKLVKVWNLKNCDLNKNLEGHTGVLNTVTISPDGSLCASGGKDGVAKLWDVKEGKHLYSLETGSTINSLCFSPCDYWLCAATDRFIRIWNLESKLIISEIYPVKQSKIGVPWCTSLTWSANGQLLYCGSTDGNIYVYEVKKHSV
Question: Which binding does the source give for B5 here?
Answer: The binding was “binds”.

B6: Ornithine aminotransferase (from parasite lysate) (enzyme, UniProt Q6LFH8 1-414)
chain: MDFVKELKSSQDYMNNELTYGAHNYDPIPVVLKRGKGVFVYDIEDRRYYDFLSAYSSVNQGHCHPDILNAMINQAKKLTICSRAFFSDSLGVCERYLTNLFGYDKVLMMNTGAEASETAYKLCRKWGYEVKKIPENSAKIIVCNNNFSGRTLGCVSASTDKKCKNNFGPFVPNFLKVPYDDLEALEKELQDPNVCAFIVEPVQGEAGVIVPSDSYFPGVASLCKKYNVLFVADEVQTGLGRTGKLLCTHHYGVKPDVILLGKALSGGHYPISAILANDDVMLVLKPGEHGSTYGGNPLAAAICVEALKVLINEKLCENADKLGAPFLQNLKEQLKDSKVVREVRGKGLLCAIEFKNDLVNVWDICLKFKENGLITRSVHDKTVRLTPPLCITKEQLDECTEIIVKTVKFFDDNL
Question: With B6 as the binder, how does the binding read?
Answer: The binding was “binds”.

B7: Human peroxiredoxin 2 (Prx 2) (protein, UniProt P32119 1-198)
chain: MASGNARIGKPAPDFKATAVVDGAFKEVKLSDYKGKYVVLFFYPLDFTFVCPTEIIAFSNRAEDFRKLGCEVLGVSVDSQFTHLAWINTPRKEGGLGPLNIPLLADVTRRLSEDYGVLKTDEGIAYRGLFIIDGKGVLRQITVNDLPVGRSVDEALRLVQAFQYTDEHGEVCPAGWKPGSDTIKPNVDDSKEYFSKHN
Question: B7 was tested. Which binding did it give?
Answer: The binding was “no binding”.

B8: Plasmoredoxin (Thioredoxin-like redox-active protein) (protein, UniProt Q8I224 1-179)
chain: MACQVDNPPKTYPNDKTAEYEKYANYMNYLYYYQNNELKKIDSSYFKDKYLGLFFGASWCKYCVTFIDSLNIFKKNFPNVEIIYIPFDRTYQEYQSFLKNTNFYALPFDNYLYICKKYQIKNLPSFMLITPNNNILVKDAAQLIKTDEYINNLKSLIKNYIIHPKTFQFNNRFFDLFRN
Question: How did the binding turn out when B8 was run?
Answer: The binding was “binds”.
